From paper PMC6599889
No constants are given. Whether binding was seen depends on the method and setting. Some entries that bind do so weakly or less than the wild type. Tags and fused reporters may be left off the sequences shown.

The chains behind the UniProt entries cited, without tags or fusion partners. Where a name states a change or a piece, a line headed by the entry shows the natural chain unless it says otherwise. A line that says so, or that is headed by a name, gives the form on record, which may keep a tag or linker.
UniProt P14416: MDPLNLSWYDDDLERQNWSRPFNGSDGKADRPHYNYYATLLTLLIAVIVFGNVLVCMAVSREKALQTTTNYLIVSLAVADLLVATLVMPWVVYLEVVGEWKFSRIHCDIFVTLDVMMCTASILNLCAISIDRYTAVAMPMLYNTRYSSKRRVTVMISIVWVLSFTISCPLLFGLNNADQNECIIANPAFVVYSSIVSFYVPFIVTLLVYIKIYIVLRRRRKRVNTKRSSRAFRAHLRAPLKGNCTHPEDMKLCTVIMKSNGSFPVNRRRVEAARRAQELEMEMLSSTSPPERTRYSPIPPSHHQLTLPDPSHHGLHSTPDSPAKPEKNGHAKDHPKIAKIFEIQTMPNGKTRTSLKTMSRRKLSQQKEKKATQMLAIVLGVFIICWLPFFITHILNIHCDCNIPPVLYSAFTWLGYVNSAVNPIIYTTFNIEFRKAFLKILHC
D2RS-Td-Tomato (short isoform of the dopamine 2 receptor tagged with Td-Tomato) (P14416-2, form named): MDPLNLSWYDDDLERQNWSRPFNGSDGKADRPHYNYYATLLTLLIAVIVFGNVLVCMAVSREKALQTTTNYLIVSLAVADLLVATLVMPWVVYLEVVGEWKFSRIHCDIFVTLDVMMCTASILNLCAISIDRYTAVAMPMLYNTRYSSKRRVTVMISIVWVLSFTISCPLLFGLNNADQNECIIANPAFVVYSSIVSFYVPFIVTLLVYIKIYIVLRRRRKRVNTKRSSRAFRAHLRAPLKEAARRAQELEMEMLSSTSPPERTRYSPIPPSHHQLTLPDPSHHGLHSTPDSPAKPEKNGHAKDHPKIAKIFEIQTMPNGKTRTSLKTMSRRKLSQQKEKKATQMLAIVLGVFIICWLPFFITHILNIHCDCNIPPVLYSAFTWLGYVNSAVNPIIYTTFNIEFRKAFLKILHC

Experiments:
[1] = target: T1, GPR37-eGFP (human G Protein-Coupled Receptor 37 fused to enhanced Green Fluorescent protein) (human) (UniProt O15354); assay: fluorescence cross-correlation spectroscopy (FCCS); live N2a cells, a subset of the cells; sequential illumination (only one laser at one time) to reduce bleed through; data not shown
T1 sequence: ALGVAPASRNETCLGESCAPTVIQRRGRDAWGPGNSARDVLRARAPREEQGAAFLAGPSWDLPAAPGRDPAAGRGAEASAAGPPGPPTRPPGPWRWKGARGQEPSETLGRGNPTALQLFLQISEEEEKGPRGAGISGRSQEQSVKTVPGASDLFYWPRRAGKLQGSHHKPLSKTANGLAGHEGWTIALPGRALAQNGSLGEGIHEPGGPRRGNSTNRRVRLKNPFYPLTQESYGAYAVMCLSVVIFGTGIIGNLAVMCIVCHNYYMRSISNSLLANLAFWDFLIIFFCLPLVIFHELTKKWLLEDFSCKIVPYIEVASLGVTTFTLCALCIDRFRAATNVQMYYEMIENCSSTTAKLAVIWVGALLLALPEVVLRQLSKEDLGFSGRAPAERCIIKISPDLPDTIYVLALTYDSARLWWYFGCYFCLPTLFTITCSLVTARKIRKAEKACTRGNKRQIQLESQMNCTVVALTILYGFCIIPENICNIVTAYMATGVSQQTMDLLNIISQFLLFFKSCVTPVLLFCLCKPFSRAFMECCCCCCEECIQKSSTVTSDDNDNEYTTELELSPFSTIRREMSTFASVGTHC

[2] = target: T1, GPR37-eGFP (human G Protein-Coupled Receptor 37 fused to enhanced Green Fluorescent protein) (human); assay: fluorescence cross-correlation spectroscopy (FCCS); live N2a cells, apical plasma membrane, 37 C, 5% CO2; eGFP-tagged GPR37 or GPR37L1 and Td-Tomato-tagged D2R isoform; relative cross-correlation amplitude (RCCA); cells untreated or treated with 4-PBA for 48 h and/or 100 nM pramipexole
[3] = target: T2, GPR37L1-eGFP (human G Protein-Coupled Receptor 37 like 1 fused to enhanced Green Fluorescent protein) (human) (UniProt O60883); assay: as above
T2 sequence: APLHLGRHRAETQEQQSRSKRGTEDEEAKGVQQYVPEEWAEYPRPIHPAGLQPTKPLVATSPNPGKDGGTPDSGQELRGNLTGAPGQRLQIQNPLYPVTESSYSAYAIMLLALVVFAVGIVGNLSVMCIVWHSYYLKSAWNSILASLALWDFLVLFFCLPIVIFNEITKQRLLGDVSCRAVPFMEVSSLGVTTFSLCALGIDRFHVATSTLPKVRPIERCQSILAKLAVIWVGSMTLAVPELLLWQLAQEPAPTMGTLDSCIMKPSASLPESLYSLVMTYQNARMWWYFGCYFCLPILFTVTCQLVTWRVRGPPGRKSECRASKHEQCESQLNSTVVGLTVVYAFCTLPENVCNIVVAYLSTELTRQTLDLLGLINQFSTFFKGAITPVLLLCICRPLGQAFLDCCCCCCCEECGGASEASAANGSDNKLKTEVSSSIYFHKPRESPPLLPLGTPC

binding [1] | binding [2] | binding [3] | Substance
binds | binds | – | D2RL-Td-Tomato (long isoform of the dopamine 2 receptor tagged with Td-Tomato) (from UniProt P14416 1-443)
– | binds | binds | D2RS-Td-Tomato (short isoform of the dopamine 2 receptor tagged with Td-Tomato) (from UniProt P14416-2 1-414)
